Data: publication PMC7350077
No constants are given. Whether binding was seen depends on the method and setting. Binding seen in cells or lysates may run through a third protein. These calls come from enrichment with a bait or labelling near it, and not all partners need be listed.

Chains of the proteins cited; added tags and fusions are not shown. Residues count along the entry.
UniProt P37231, residues 29-505: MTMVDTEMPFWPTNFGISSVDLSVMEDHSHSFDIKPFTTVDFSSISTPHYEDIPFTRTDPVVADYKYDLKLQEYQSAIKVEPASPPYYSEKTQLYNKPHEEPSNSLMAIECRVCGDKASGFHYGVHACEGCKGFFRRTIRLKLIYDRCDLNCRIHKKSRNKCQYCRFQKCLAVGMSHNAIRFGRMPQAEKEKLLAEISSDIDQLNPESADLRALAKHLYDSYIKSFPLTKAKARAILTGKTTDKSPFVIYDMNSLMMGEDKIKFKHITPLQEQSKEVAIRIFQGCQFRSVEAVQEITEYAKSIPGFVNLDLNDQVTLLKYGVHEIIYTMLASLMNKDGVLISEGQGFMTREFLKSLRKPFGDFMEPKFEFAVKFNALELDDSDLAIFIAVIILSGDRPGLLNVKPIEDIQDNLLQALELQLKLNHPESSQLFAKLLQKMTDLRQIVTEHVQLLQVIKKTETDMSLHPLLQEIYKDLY
UniProt P99024: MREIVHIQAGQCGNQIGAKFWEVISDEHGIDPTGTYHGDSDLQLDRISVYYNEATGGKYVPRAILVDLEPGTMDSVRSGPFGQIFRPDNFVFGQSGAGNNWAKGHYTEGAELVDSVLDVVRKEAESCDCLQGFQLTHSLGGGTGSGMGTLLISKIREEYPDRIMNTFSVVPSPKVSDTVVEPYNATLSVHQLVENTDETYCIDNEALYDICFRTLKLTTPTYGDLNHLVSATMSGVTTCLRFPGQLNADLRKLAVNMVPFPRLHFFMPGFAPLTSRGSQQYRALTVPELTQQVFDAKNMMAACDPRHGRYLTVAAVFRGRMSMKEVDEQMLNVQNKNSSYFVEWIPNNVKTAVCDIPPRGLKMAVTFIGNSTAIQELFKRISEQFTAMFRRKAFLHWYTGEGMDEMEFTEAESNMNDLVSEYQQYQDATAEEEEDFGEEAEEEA

Target: N- and C-terminally HA-tagged human peroxisome proliferator-activated receptor gamma (hPPARγ) (human) (UniProt P37231)
Assay: affinity purification with mass spectrometry; HA-beads immunoprecipitation of HA-tagged hPPARγ from J774A.1 lysates (500 mM NaCl, 1% NP-40, 0.5% deoxycholate, 0.1% SDS, sonicated; overnight at 4°C); SDS-PAGE, gel piece of about 58 kDa ± 3 kDa cut out, LysC digestion, LC/MS; cells untreated or treated with LPS/IFNγ 4 h, IL4 4 h, H2O2 15 min, TPA 30 min; LC/MS data reanalysed for coimmunoprecipitated proteins

- binding: binds
Substance: tubulin β-5 chain (TUBB5) (from UniProt P99024 1-444)
